The list does not hold the whole screen: it gathers tests that were run many times, whatever their T/C, doses with no T/C, and many T/C values between a quarter and a half above the control. Further doses and runs are listed elsewhere. T/C is the treated group as % of the vehicle group. Some entries give survivors of the animals treated and no T/C: the source files T/C as zero there, which appears to mark a toxic dose or a test without result, not a measured value. Some doses without a T/C left all or most animals alive at the check, yet need not have been tolerated: survival well below the control is almost never listed, so the zero probably covers shortened survival too. Counts of survivors are from the toxicity check (mostly the fifth day) where no day follows; animals may have died later. Schedules are NCI's codes, read here as Q, the interval in days (D) or hours (H), X, the number of doses. Some doses were run more than once; their values stand side by side, smallest first. Some schedule codes hold Z or #, which are not explained here. Where survival is the endpoint, the PubChem record calls one and a half times the control and up active, and a quarter to a half above the control has no call in these data; cut-offs in other NCI protocols can differ. Some T/C values are followed by the survivors on the day toxicity was checked, most often the fifth; where none is given, no animal had died by that day.
Test system: BDF1 mice, P388 leukemia ip, median survival T/C
Test: NCI In Vivo Anticancer Drug Screen. Data for tumor model P388 Leukemia (intraperitoneal) in B6D2F1 (BDF1) mice
Settings: T/C endpoint: median survival time, higher T/C = longer survival
How it was run: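 Mice carrying the transplantable tumour receive compound or vehicle. Survival is followed in each arm, and the treated measure is divided by the vehicle measure.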

[1] = dose: 25.0 mg/kg/injection, schedule: Q01DX009 (ip), vehicle: saline
[2] = dose: 50.0 mg/kg/injection, schedule: Q01DX009 (ip), vehicle: saline
[3] = dose: 100.0 mg/kg/injection, schedule: Q01DX009 (ip), vehicle: Klucel (hydroxypropylcellulose) (HPC)
[4] = dose: 100.0 mg/kg/injection, schedule: Q01DX009 (ip), vehicle: saline
[5] = dose: 100.0 mg/kg/injection, schedule: Q04DX003 (ip), vehicle: saline
[6] = dose: 200.0 mg/kg/injection, schedule: Q01DX009 (ip), vehicle: saline
[7] = dose: 200.0 mg/kg/injection, schedule: Q04DX003 (ip), vehicle: Klucel (hydroxypropylcellulose) (HPC)
[8] = dose: 400.0 mg/kg/injection, schedule: Q01DX009 (ip), vehicle: saline with Tween-80
[9] = dose: 200.0 mg/kg/injection, schedule: Q01DX009 (ip), vehicle: saline with Tween-80

SMILES: CCCC(=O)N(C)C(C)C(=O)OC1CC(=O)N(C)c2cc(cc(OC)c2Cl)C/C(C)=C/C=CC(OC)C2(O)CC(OC(=O)N2)C(C)C2OC12C (configuration not stated)
- T/C (dose: 12.5 micrograms/kg/injection, schedule: Q01DX009 (ip), vehicle: saline + alcohol): 128 % of control
- T/C (dose: 25.0 micrograms/kg/injection, schedule: Q01DX009 (ip), vehicle: saline + alcohol): 128 % of control
- survivor count (dose: 50.0 nanograms/kg/injection, schedule: Q## X009 (ip), vehicle: other): 5 of 6
- T/C (dose: 100.0 micrograms/kg/injection, schedule: Q01DX009 (ip), vehicle: saline + alcohol): 125 % of control
- T/C (dose: 100.0 micrograms/kg/injection, schedule: Q01DX009 (ip), vehicle: saline): 139 % of control
- survivor count (dose: 100.0 nanograms/kg/injection, schedule: Q## X009 (ip), vehicle: other): 6 of 6
- T/C (dose: 200.0 micrograms/kg/injection, schedule: Q01DX009 (ip), vehicle: saline): 139 % of control [5 of 6 alive]

SMILES: CSc1ccc(NC(=O)NNP(=S)(Oc2ccc(C(C)(C)C)cc2)Oc2ccc(C(C)(C)C)cc2)cc1
- survivor count (dose: 200.0 mg/kg/injection, schedule: Q01DX005 (ip), vehicle: saline with Tween-80): 5 of 5

SMILES: O=C(NCCCCCCCCCCNC(=O)N1CC1)N1CC1
- T/C (dose: 2.0 mg/kg/injection, schedule: Q04DX003 (ip), vehicle: saline with Tween-80): 145 % of control
- survivor count (dose: 100.0 mg/kg/injection, schedule: Q04DX003 (ip), vehicle: saline with Tween-80): 1 of 6
- survivor count (dose: 200.0 mg/kg/injection, schedule: Q04DX003 (ip), vehicle: saline with Tween-80): 0 of 6
- survivor count (dose: 400.0 mg/kg/injection, schedule: Q04DX003 (ip), vehicle: saline with Tween-80): 0 of 6

SMILES: NC(CSC(c1ccccc1)(c1ccccc1)c1ccc2ccccc2c1)C(=O)O (configuration not stated)
- T/C (dose: 0.52 mg/kg/injection, schedule: Q01DX009 (ip), vehicle: saline): 144 % of control
- T/C (dose: 0.79 mg/kg/injection, schedule: Q01DX009 (ip), vehicle: saline): 137 % of control
- survivor count (dose: 1.2 mg/kg/injection, schedule: Q01DX009 (ip), vehicle: saline): 0 of 6
- survivor count (dose: 1.8 mg/kg/injection, schedule: Q01DX009 (ip), vehicle: saline): 0 of 6
- survivor count [1]: 6 of 6
- survivor count [2]: 5 of 6
- survivor count (dose: 66.0 mg/kg/injection, schedule: Q04DX003 (ip), vehicle: saline): 6 of 6
- survivor count [3]: 5 of 6
- survivor count [4]: 3 of 6
- survivor count [5]: 4 of 6
- survivor count (dose: 150.0 mg/kg/injection, schedule: Q04DX003 (ip), vehicle: saline): 4 of 6 and 5 of 6
- survivor count [6]: 1 of 6
- survivor count [7]: 4 of 6

SMILES: O=C(O)/C(=C/c1ccc(Cl)cc1)c1ccccc1
- survivor count [8]: 3 of 6

SMILES: COc1cc(NCCCCCCNC(C)C)c2nccc(C)c2c1
- survivor count [2]: 0 of 6
- survivor count [4]: 0 of 6
- survivor count [6]: 0 of 6

SMILES: O=C1CN(c2ccccc2)CC(=O)N2CCCN12
- survivor count (dose: 100.0 mg/kg/injection, schedule: Q01DX005 (ip), vehicle: saline with Tween-80): 5 of 5

SMILES: CN(C)c1ccc(C(O)C(N)=O)cc1 (configuration not stated)
- survivor count (dose: 12.5 mg/kg/injection, schedule: Q01DX009 (ip), vehicle: saline): 5 of 6

SMILES: CCCCOCNc1ncccn1
- T/C [9]: 130 % of control

SMILES: O=C(O)CNCc1ccc(F)cc1
- T/C (dose: 400.0 mg/kg/injection, schedule: Q04DX003 (ip), vehicle: saline): 130 % of control [5 of 6 alive]

SMILES: O=C(c1ccccc1)C(c1ccccc1)C(O)(C(F)(F)F)C(F)(F)F (configuration not stated)
- T/C (dose: 400.0 mg/kg/injection, schedule: Q01DX001 (ip), vehicle: saline with Tween-80): 127 % of control

SMILES: CCCC(NC(=O)OCc1ccccc1)C(=O)O (configuration not stated)
- survivor count [8]: 3 of 6

SMILES: CC(C)OC(CCC#N)c1ccc(Cl)cc1 (configuration not stated)
- survivor count (dose: 200.0 mg/kg/injection, schedule: Q04DX003 (ip), vehicle: other): 6 of 6

SMILES: CC1OCC(Br)([N+](=O)[O-])CO1 (configuration not stated)
- survivor count (dose: 50.0 mg/kg/injection, schedule: Q04DX003 (ip), vehicle: saline): 3 of 6
- survivor count [5]: 0 of 6

SMILES: NN(C(=O)c1ccccc1)c1ccccc1
- survivor count [3]: 4 of 6

SMILES: CN(N=O)C(=O)NC(N)=O
- T/C (dose: 7.0 mg/kg/injection, schedule: Q01DX009 (ip), vehicle: Klucel (hydroxypropylcellulose) (HPC)): 136 % of control
- T/C (dose: 8.2 mg/kg/injection, schedule: Q01DX009 (ip), vehicle: saline): 147 % of control
- T/C (dose: 11.0 mg/kg/injection, schedule: Q01DX009 (ip), vehicle: Klucel (hydroxypropylcellulose) (HPC)): 136 % of control
- T/C (dose: 25.0 mg/kg/injection, schedule: Q01DX009 (ip), vehicle: Klucel (hydroxypropylcellulose) (HPC)): 127 % of control
- T/C [1]: 148 % of control
- T/C (dose: 25.0 mg/kg/injection, schedule: Q04DX003 (ip), vehicle: Klucel (hydroxypropylcellulose) (HPC)): 145 % of control
- T/C (dose: 33.0 mg/kg/injection, schedule: Q04DX003 (ip), vehicle: Klucel (hydroxypropylcellulose) (HPC)): 131 % of control
- survivor count (dose: 50.0 mg/kg/injection, schedule: Q01DX009 (ip), vehicle: Klucel (hydroxypropylcellulose) (HPC)): 6 of 6
- survivor count (dose: 100.0 mg/kg/injection, schedule: Q04DX003 (ip), vehicle: Klucel (hydroxypropylcellulose) (HPC)): 6 of 6
- survivor count [7]: 4 of 6
- survivor count (dose: 400.0 mg/kg/injection, schedule: Q04DX003 (ip), vehicle: Klucel (hydroxypropylcellulose) (HPC)): 1 of 6

SMILES: NC(Cc1cccc(NP(=S)(N2CC2)N2CC2)c1)C(=O)O (configuration not stated)
- T/C (dose: 75.0 mg/kg/injection, schedule: Q04DX003 (ip), vehicle: saline): 145 % of control

SMILES: CCOC(=O)C1(C)C=C(Nc2ccc(OC)cc2)C(=O)N1c1ccc(OC)cc1 (configuration not stated)
- survivor count (dose: 100.0 mg/kg/injection, schedule: Q01DX009 (ip), vehicle: saline with Tween-80): 2 of 6
- survivor count [9]: 0 of 6

SMILES: CC1(C)N=C(N)N=C(N)N1c1ccc(CCCCc2ccc(S(=O)(=O)F)cc2Cl)c(Cl)c1
- T/C (dose: 2.2 mg/kg/injection, schedule: Q01DX009 (ip), vehicle: saline with Tween-80): 126 % of control
- T/C (dose: 3.3 mg/kg/injection, schedule: Q01DX009 (ip), vehicle: saline with Tween-80): 142 % of control
- T/C (dose: 300.0 mg/kg/injection, schedule: Q04DX003 (ip), vehicle: saline with Tween-80): 145 % of control

SMILES: Nc1nc(SN=Nc2ccc(S(N)(=O)=O)cc2)c2[nH]cnc2n1
- survivor count (dose: 30.0 mg/kg/injection, schedule: Q01DX009 (ip), vehicle: saline with Tween-80): 6 of 6

Reference: PubChem BioAssay AID328 (DTP/NCI, 2004)
